{"source": "PubChem BioAssay AID493014", "about": "(National Center for Advancing Translational Sciences (NCATS), 2011)", "note": "About 170 (0.05%) of roughly 340,000 compounds were called active. The inconclusive results got no clear call from the source; some entries with a clear call stand among them for comparison. Calls follow the shape of the dose curve; as a rule, active = well fitted inhibition curve with a large enough effect in the signal ratio, with a control signal flat (not every such curve was filed as active); inconclusive = small, poorly fitted or top-dose-only effect, or effect the other way, or a change in a side signal; inactive = flat fitted curve, though single readings scatter; the % refers to the signal ratio. Where the call is inconclusive, the potency comes from a doubtful curve fit. Potency is read from the fitted curve at half-maximal effect."}
{"assay": "qHTS Assay to Find Inhibitors of Chronic Active B-Cell Receptor Signaling;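 as to activity change, negative = inhibition: plate controls were basal doxycycline-induced cells for no effect and cells given 10 µM MG132 for full effect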", "settings": "ABC-DLBCL IkBa-CBG/CBR reporter, luminescence ratio (green luciferase fused to IkBa over red control in TMD8 lymphoma cells), 4 h; activity change, negative = inhibition: at 46.1 µM (top of the series) unless noted", "in_short": "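Cell line TMD8 (human ABC DLBCL), stably expressing tet-inducible CBG68-IkBa fusion and CBR; IMDM/0.5% FBS; cpd up to 46 uM; dox induction, 4 h, 37C/5% CO2; dual luminescence; green/red ratio; MG132 control.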"}
{"smiles": "Cc1ccccc1/C=N/Nc1ncnc2nc[nH]c12", "Potency": "inconclusive: 20 µM [falling, partial curve]"}
{"smiles": "CC(C)(O)C(O)COc1c2ccoc2cc2oc(=O)ccc12", "note": "(stereo not given)", "activity change, negative = inhibition": "inconclusive: -0.504%"}
{"smiles": "Cn1cnnc1SCC(=O)Nc1ccc(Oc2ccccc2)cc1", "Potency": "inconclusive: 14.1 µM [falling, partial curve]"}
{"smiles": "CC1CCN(CC(=O)Nc2cccc(C(=O)Nc3cccc(C(F)(F)F)c3)c2)CC1", "activity change, negative = inhibition": "inactive"}
{"smiles": "COC(=O)COc1ccccc1/C=C1/NC(=O)NC1=O", "activity change, negative = inhibition": "inconclusive: 1.16%"}
{"smiles": "C/C(=N/NC(=O)c1ccc(Br)o1)c1cccc(NC(=O)c2ccc(F)cc2)c1", "activity change, negative = inhibition": "inconclusive: -16.6%"}
{"smiles": "CCN(c1ccccc1)S(=O)(=O)c1ccc(C(=O)N(C)Cc2cccs2)cc1", "activity change, negative = inhibition": "inconclusive: 1.26%"}
{"smiles": "Cc1ccc(N2C(S)=C(C#N)C(=O)NC23CCCCC3)cc1", "activity change, negative = inhibition": "inconclusive: 6.01%"}
{"smiles": "COc1ccc(NC(=S)NCc2ccccn2)cc1OC", "Potency": "inconclusive: 15.8 µM [falling, partial curve, poor fit]"}
{"smiles": "O=C(Cc1ccccc1)Nc1cc([N+](=O)[O-])ccc1N1CCOCC1", "activity change, negative = inhibition": "inactive"}
{"smiles": "O=C(CSc1n[nH]c(=O)n1C1CC1)Nc1ccc(OC(F)(F)F)cc1", "Potency": "inconclusive: 23.1 µM [falling, partial curve, poor fit]"}
{"smiles": "COc1ccc(CSc2nnnn2Cc2ccccc2)cc1OC", "activity change, negative = inhibition": "inconclusive: -13.9%"}
{"smiles": "CCn1c(=O)n(CC(=O)NCc2ccco2)c(=O)c2ccccc21", "activity change, negative = inhibition": "inconclusive: -21.1%"}
{"smiles": "O=C(NCC(=O)N1CCOCC1)OCc1ccccc1", "activity change, negative = inhibition": "inconclusive: -0.364%"}
{"smiles": "CCCCCC/C=N/Nc1nnc(Cc2ccc(OC)c(OC)c2)c(=O)[nH]1", "activity change, negative = inhibition": "inconclusive: -5.25%"}
{"smiles": "COC(=O)c1ccccc1NC(=O)CN1CCN(Cc2ccccc2)CC1", "activity change, negative = inhibition": "inconclusive: -2.83%"}
{"smiles": "CC1C/C(=N/NC(=O)c2cccc(F)c2)c2ccc(O)cc2C1", "note": "(stereo not given)", "Potency": "inconclusive: 20.6 µM [falling, single point]"}
{"smiles": "Cc1ccc(N(CC(=O)N2CCc3ccccc3C2)S(C)(=O)=O)cc1", "activity change, negative = inhibition": "inactive"}
{"smiles": "OC1(Cc2cc(-c3ccccc3)no2)CCN(CCCc2ccccc2)CC1", "Potency": "inconclusive: 20 µM [falling, single point]"}
{"smiles": "CCCc1cc(=O)oc2cc(C)cc(OC(C)C(=O)NCC(O)c3ccccc3)c12", "note": "(stereo not given)", "activity change, negative = inhibition": "inconclusive: -2.86%"}
{"smiles": "COc1ccc(S(=O)(=O)N2CCCC2)c(C)c1C", "activity change, negative = inhibition": "inconclusive: -2.79%"}
{"smiles": "Cc1ccnc(NC(=O)CCC(=O)N(CC(=O)NCc2ccc(F)cc2)CC2CCCO2)c1", "note": "(stereo not given)", "Potency": "inconclusive: 3.55 µM [falling, partial curve, poor fit]"}
{"smiles": "CC(=O)NC(Cc1ccccc1)C(=O)OCC(=O)c1ccccc1", "note": "(stereo not given)", "activity change, negative = inhibition": "inconclusive: 4.14%"}
{"smiles": "O=CNCc1nc2ccccc2n1CCc1ccccc1", "activity change, negative = inhibition": "inconclusive: 3.66%"}
{"smiles": "O=C(/C=C/c1ccc(Cl)cc1)NCc1ccco1", "activity change, negative = inhibition": "inconclusive: -9.8%"}
{"smiles": "Cc1ccc(NC(=O)CN2C(=O)S/C(=C\\c3ccc(-c4cccc(C(=O)O)c4C)o3)C2=O)cc1C", "activity change, negative = inhibition": "inactive"}
{"smiles": "Nc1nc(Cl)cc(Oc2ccc(Cl)cc2)n1", "activity change, negative = inhibition": "inconclusive: 7.93%"}
{"smiles": "COc1ccc(CN2CCN(C(=O)Cn3nc(C(=O)O)c4ccccc4c3=O)CC2)cc1F", "activity change, negative = inhibition": "inactive"}
{"smiles": "COc1ccc(NC(=O)CSc2ccc3c4c(cccc24)C(=O)c2ccccc2-3)cc1", "activity change, negative = inhibition": "inactive"}
{"smiles": "CCC(C)n1c(/C=C/c2ccccc2)nc2ccccc21", "note": "(stereo not given)", "activity change, negative = inhibition": "inactive"}
{"smiles": "CCCCc1cc(=O)oc2cc(OCC(=O)NCc3ccccn3)c(Cl)cc12", "activity change, negative = inhibition": "inconclusive: 2.06%"}
{"smiles": "NC(=NC(=O)c1ccccc1)N1CCOCC1", "Potency": "inconclusive: 35.5 µM [falling, partial curve, poor fit]"}
{"smiles": "COc1ccc(C)cc1-n1nnnc1SCC(=O)N1CCC(C(=O)Nc2nccs2)CC1", "activity change, negative = inhibition": "inconclusive: -10.1%"}
{"smiles": "Cc1ccc(NC(=O)CSC2=C(C#N)C(c3ccco3)CC(=O)N2)cc1", "note": "(stereo not given)", "Potency": "inconclusive: 23.1 µM [falling, single point]"}
{"smiles": "O=C(NC(CO)Cc1ccc([N+](=O)[O-])cc1)C(Cl)Cl", "note": "(stereo not given)", "activity change, negative = inhibition": "inactive"}
{"smiles": "Cc1ccc2occ(C(=O)c3ccco3)c(=O)c2c1", "Potency": "inconclusive: 12.6 µM [falling, single point]"}
{"smiles": "Cc1cc2c(c(N)n1)c(=O)oc1ccccc12", "activity change, negative = inhibition": "inconclusive: 1.61%"}
{"smiles": "CN(C)C(CNC(=O)c1cccc(S(=O)(=O)NCc2ccccc2)c1)c1ccccc1", "note": "(stereo not given)", "activity change, negative = inhibition": "inactive"}
{"smiles": "CCn1c(SCC(=O)N2CCc3ccccc32)nnc1-c1c[nH]c2ccccc12", "Potency": "inconclusive: 7.31 µM [falling, partial curve, poor fit]"}
{"smiles": "Nc1nonc1-c1noc(CCCN2C(=O)c3ccccc3C2=O)n1", "Potency": "inconclusive: 7.08 µM [rising, partial curve, poor fit]"}
{"smiles": "C=CCc1cc(/C=C/c2nc(O)c([N+](=O)[O-])c(=O)[nH]2)cc(OC)c1O", "Potency": "inconclusive: 35.5 µM [rising, single point]"}
{"smiles": "O=C(/C=C/c1ccco1)Nc1cccnc1Cl", "Potency": "inconclusive: 17.8 µM [falling, single point]"}
{"smiles": "O=C(O)C1=C[C@@H](c2ccc3c(c2)OCO3)C[C@@H](OCCCCO)O1", "activity change, negative = inhibition": "inconclusive: 6.83%"}
{"smiles": "COc1cccc(C(=O)/C=C/Nc2ccc(NC(C)=O)cc2)c1", "activity change, negative = inhibition": "inconclusive: 0.325%"}
{"smiles": "CCOC(=O)C(NC(=O)c1ccccc1Cl)(Nc1ccc(C(F)(F)F)cc1)C(F)(F)F", "note": "(stereo not given)", "activity change, negative = inhibition": "inactive"}
{"smiles": "COc1cc(/C=N/NC(N)=O)ccc1OCC(=O)Nc1ccc(C)c(C)c1", "activity change, negative = inhibition": "inactive"}
{"smiles": "CN(c1ccc(OCC(=O)N2CCC(C(N)=O)CC2)cc1)S(=O)(=O)c1cccs1", "Potency": "inconclusive: 0.651 µM [falling, full curve, poor fit]"}
{"smiles": "Cc1ccc(N(CC(=O)Nc2cc(Cl)ccc2Oc2ccccc2)S(C)(=O)=O)c(C)c1", "Potency": "inconclusive: 29.1 µM [rising, single point]"}
{"smiles": "O=C(CCN1C(=O)c2ccccc2C1=O)Nc1cccc(S(=O)(=O)N2CCCCC2)c1", "activity change, negative = inhibition": "inconclusive: 9.2%"}
{"smiles": "COCC(=O)NCCNc1nc2ccc(C)cc2cc1C", "activity change, negative = inhibition": "inconclusive: -2.64%"}
{"smiles": "O=C(c1nc2ccccn2c1CNCC1OCCc2ccccc21)N1CCOCC1", "note": "(stereo not given)", "activity change, negative = inhibition": "inconclusive: 4.02%"}
{"smiles": "Cc1cccc(C(=O)NNC(=S)NC(=O)c2cccs2)c1", "Potency": "inconclusive: 28.2 µM [falling, partial curve]"}
{"smiles": "Cn1cccc1CC(=O)NNC(=S)Nc1ccccc1Cl", "activity change, negative = inhibition": "inconclusive: 1.47%"}
{"smiles": "CCOC(=O)COc1nc(C)c(Br)c(OC)n1", "activity change, negative = inhibition": "inconclusive: 2.53%"}
{"smiles": "Cc1cc(C)c(S(=O)(=O)NCCc2csc3nc(-c4ccc(Cl)cc4)nn23)c(C)c1", "activity change, negative = inhibition": "inconclusive: 11.5%"}
{"smiles": "O=C1c2ccccc2NC(c2ccccn2)N1NS(=O)(=O)c1ccccc1", "note": "(stereo not given)", "activity change, negative = inhibition": "inconclusive: 14.1%"}
{"smiles": "O=C(CSc1nnc2ccccn12)N1CCc2ccccc21", "activity change, negative = inhibition": "inactive"}
{"smiles": "COc1ccccc1NC(=S)N(Cc1ccc(C)cc1)Cc1ccccn1", "activity change, negative = inhibition": "inconclusive: -0.0535%"}
{"smiles": "COc1ccc(C/C(N)=N/OC(=O)C(c2ccccc2)c2ccccc2)cc1OC", "activity change, negative = inhibition": "inactive"}
{"smiles": "COCCn1c(SCC(=O)c2c(-c3ccccc3)n(C)c3ccccc23)nnc1-c1ccncc1", "Potency": "inconclusive: 23.1 µM [falling, partial curve]"}
{"smiles": "CCCCC(C(=O)NC(C)(C)C)N(Cc1ccccc1Cl)C(=O)c1snc(C(N)=O)c1N", "note": "(stereo not given)", "activity change, negative = inhibition": "inconclusive: 1.99%"}
{"smiles": "Cc1ccc(C2CCN(C(=O)Nc3ccc(C)c(C)c3)C2)cc1", "note": "(stereo not given)", "activity change, negative = inhibition": "inactive"}
{"smiles": "Cc1ccc(CONC(=O)c2ccccc2)cc1", "Potency": "inconclusive: 12.6 µM [falling, partial curve]"}
{"smiles": "CSc1c(-c2ccccn2)c(N)nn1C(=O)C1CCC1", "activity change, negative = inhibition": "inconclusive: 23.7%"}
{"smiles": "COc1ccc(OC)c2sc(NC(=O)c3ccc(Cl)s3)nc12", "Potency": "inconclusive: 1.64 µM [rising, full curve]"}
{"smiles": "CCOC(=O)c1sc(NC(=O)CSc2nc3cccnc3n2C)nc1C", "Potency": "inconclusive: 1.78 µM [falling, partial curve, poor fit]"}
{"smiles": "CCOC(=O)c1nnn(CC(=O)N2N=C(c3cc(C)ccc3C)CC2c2ccc(OC)cc2)c1C(=O)OCC", "note": "(stereo not given)", "activity change, negative = inhibition": "inactive"}
{"smiles": "O=C(Nc1ccccc1)Nc1ccc(F)cc1F", "activity change, negative = inhibition": "inconclusive: -26.5%"}
{"smiles": "Cc1nc2ccccn2c1C(=O)N/N=C/c1ccc(CNC(=O)C(=O)Nc2ccccc2)o1", "activity change, negative = inhibition": "inconclusive: -11.2%"}
{"smiles": "CCN1CCN(Cc2ccc(NC(=O)c3cc(NC(=O)c4cnn(-c5ccccc5)c4N)cc(OC)c3)cc2C(F)(F)F)CC1", "activity change, negative = inhibition": "inconclusive: -0.389%"}
{"smiles": "O=[N+]([O-])c1ccc(NC(=S)N2CCOCC2)cc1", "activity change, negative = inhibition": "inconclusive: 4.11%"}
{"smiles": "Cc1cc(Br)ccc1NC(=O)CCSc1ccccc1", "activity change, negative = inhibition": "inactive"}
{"smiles": "CCN(CC)C(=O)Cn1cc(S(=O)(=O)CC(=O)Nc2ccc3c(c2)OCCO3)c2ccccc21", "Potency": "inconclusive: 25.1 µM [falling, single point]"}
{"smiles": "CCOc1ccc(NC(=O)CN2CCN(C3c4ccccc4-c4ccccc43)CC2)cc1", "Potency": "inconclusive: 16.4 µM [falling, partial curve, poor fit]"}
{"smiles": "Cc1c(/C=N/NC(=O)c2ccccc2O)c2ccccn2c1C(=O)c1ccc(F)cc1", "activity change, negative = inhibition": "inconclusive: -8%"}
{"smiles": "COc1cccc(NC(=S)N2CCn3c(nc4ccccc43)C2)c1", "activity change, negative = inhibition": "inconclusive: 9.92%"}
{"smiles": "O=C(COc1cccnc1[N+](=O)[O-])Nc1cc(Cl)ccc1Cl", "activity change, negative = inhibition": "inactive"}
{"smiles": "O=C(CCc1ccccc1)Nc1ccccc1F", "Potency": "inconclusive: 2.91 µM [falling, partial curve]"}
{"smiles": "CCc1c(C)[nH]n(-c2nc(-c3cccc([N+](=O)[O-])c3)cs2)c1=O", "activity change, negative = inhibition": "inconclusive: -7.15%"}
{"smiles": "O=C1/C(=N\\S(=O)(=O)c2cccs2)C([n+]2ccccc2)=C([O-])c2ccccc21", "activity change, negative = inhibition": "inconclusive: -1.42%"}
